Several values for one entry are separate records, joined by “and”; a condition that tells them apart may be missing. Equal values may be shown once. At least one read-out could not be matched to a standard name with certainty.
Test system: male ICR-mice
Experiment: Potentiation of sodium pentobarbital sleeping time test
Assay type: in vivo
Details: oral, 5 mg/kg, 38 mg/kg sodium pentobarbital 60 min later
Protocol: Effects of N^6-substituted adenosine derivatives and/or N^6-substituted adenine derivatives on sodium pentobarbital-induced sleeping time in mice.
Name of Experiment: Potentiation of sodium pentobarbital sleeping time test.
Method of Experiment: Groups of 8-10 male ICR-mice with an average weight of 18-22 g were used. They were dosed orally or i.p. with the test compound or the vehicle. Thirty min after i.p. injection or 60 min after oral dosing 38 mg/kg sodium pentobarbital were injected intravenously. The latency and duration of sleep (loss of righting reflex) were recorded. The percentage of prolongation of sleeping time was calculated as: [(sleeping time of experimental group)−(sleeping time of control group)]/(sleeping time of control group)×100%.

Cc1cccc(CNc2ncnc3c2ncn3[C@@H]2O[C@H](CO)[C@@H](O)[C@H]2O)c1 [Example 5, N^6-(m-methylbenzyl)-adenosine]
Sleep prolonging rate (%): 174% and 136%

Source: patent US10174033B2, “N6-substituted adenosine derivatives and N6-substituted adenine derivatives and uses thereof” (INSTITUTE OF MATERIA MEDICA, CHINESE ACADEMY OF MEDICAL …, priority 2009, dated 2019)
